# Data from PubChem BioAssay AID540303 (National Center for Advancing Translational Sciences (NCATS), 2011).
# The campaign covered roughly 330,000 compounds. About 1,000 (0.3%) were called active. This list was built around the results that the source calls inconclusive (neither active nor inactive); the mix of calls is not that of the screen. Calls come from the whole dose curve; as a rule, active = well fitted inhibition curve with a large enough effect; inconclusive = small, poorly fitted or top-dose-only effect; inactive = no such curve, though single readings can be large or run the other way; tested in mouse RAW 264.7 cells. Where the call is inconclusive, the potency comes from a doubtful curve fit.
# Assay: qHTS for Inhibitors of Cell Surface uPA Generation; note: nearly all actives have a fitted effect of over 55% in size
# Details: cell surface uPA generation assay; series mostly up to 38.3 µM
# Source text: The overall objective of this project is to perform a quantitative high throughput screen (qHTS) to identify novel compounds that inhibit the generation of cell surface urokinase activity. The urokinase plasminogen activator (uPA) is one of the two primary endogenous systems that mediate plasminogen activation into plasmin. Members of this system, including uPA and its receptor (uPAR), are overexpressed in several malignant tumors. This system plays a major role in adhesion, migration, invasion and metastasis of cancer cells. Small molecule inhibitors of the uPA system will serve as probes to understand the molecular mechanisms of the uPA cascade and better understanding the microenvironmental circumstances that facilitate the activation of plasminogen by uPA, and finally may provide novel candidate agents for anticancer drug therapy.
# […] […] Upon inhibition of the uPA activation cascade, the subsequent cell surface uPA activity-dependent translocation of LF into the cytoplasm is inhibited. ATP-Lite is used to measure intracellular ATP concentrations, which remain increased if LF entry into the cytoplasm is inhibited. This validation assay was performed using a small set of validation compounds.
# NIH Chemical Genomics Center [NCGC]
# NIH Molecular Libraries Probe Centers Network [MLPCN]
# Assay Submitter (PI): Thomas Bugge, National Institute of Dental and Craniofacial Research, NIH
# Cultured RAW 264.7 were dispensed into 1536-well clear bottom, white walled tissue culture plates at a density of 4000 cells/well and were incubated overnight (12-16 h) at 37 C in a 5% CO2 incubator. Serially diluted compounds in 23 nl DMSO were added to cells. […] Compound and reagent-treated plates were incubated for 24 h at 37 C in a 5% CO2 incubator. Perkin Elmer ATPlitetrade mark 1 step (3 ul) was then added to each well. Luminescence was detected using a Perkin Elmer ViewLuxtrade mark plate reader.
# 1.Dispensing RAW 264.7 cells into 1536-well, white walled tissue culture plates at a density of 4000 cells/well (4 uL).
# 2.Incubation at 37 C in a 5% CO2 incubator overnight.
# 3.Serially diluting compounds (1:5 serial dilution; 0.0024 uM to […] final concentration) in 23 nl DMSO.
# 5.Incubating the compound and reagent-treated plates for 24 hours at 37 C in a 5% CO2 incubator.
# 6.Adding ATP-Lite (3 ul).
# 7.Reading plates by ViewLux with an exposure length of 5 seconds.
# Potency is the fitted concentration of half-maximal effect.
row,Structure (SMILES),Potency
1,COc1cc(C#Cc2ccc3cc(CCCO)oc(=O)c3c2)cc(OC)c1,"inconclusive: 1.78 µM [inhibitor, full curve, poor fit]"
2,Cn1cnnc1SCc1ccc(C(=O)N/N=C/c2cccs2)cc1,"inconclusive: 8.91 µM [inhibitor, partial curve]"
3,O=C(c1cccc(C(F)(F)F)c1)N1CCOC12CCN(c1ncc(C(F)(F)F)cc1Cl)CC2,inactive
4,Cn1c2ccc(F)cc2c2nnc(SCC(=O)Nc3cccc(O)c3)nc21,inactive
5,CC1CCN(Cc2ccc(NC(=O)C3CCN(c4nnc(-n5cccc5)s4)CC3)cc2)CC1,"inconclusive: 12.6 µM [inhibitor, single point]"
6,COCc1nnc(NC(=O)C2CC(=O)N(C3CCCCC3)C2)s1 (configuration not stated),"inconclusive: 0.01 µM [inhibitor, full curve, poor fit]"
7,Cc1ccc(-c2nc(COC(=O)C3=NN(c4ccccc4)C(=O)CC3)cs2)cc1,"inconclusive: 0.355 µM [inhibitor, full curve, poor fit]"
8,CC(=O)c1ccc(OCCCC(=O)Nc2ccc(Cl)c(S(=O)(=O)N3CCOCC3)c2)cc1,"inconclusive: 5.62 µM [inhibitor, single point]"
9,O=C(NCc1ccccn1)c1ccc(Cl)c(S(=O)(=O)Nc2ccccc2C(=O)NCc2ccccn2)c1,inactive
10,CCOC(=O)N1CCN(C(=O)c2ccc3c(Cl)c4c(nc3c2)CCCC4)CC1,"inconclusive: 5.62 µM [inhibitor, partial curve, poor fit]"
11,O=C(O)CCn1c(O)c(C=C2N=c3ccccc3=N2)sc1=S,"inconclusive: 5.01 µM [inhibitor, partial curve]"
12,C=CCn1c(SCC(=O)N2CCc3ccccc3C2)nc2sc(C)c(C)c2c1=O,"inconclusive: 11.2 µM [inhibitor, single point]"
13,Cc1n[nH]c(C)c1N1C(=O)c2cccc3c(Br)ccc(c23)C1=O,inactive
14,COc1cc(C)c(NC(=O)c2cc(C3CC3)nc3c2cnn3C(C)C)cc1OC,"inconclusive: 11.2 µM [inhibitor, single point]"
15,COc1ccc([C@H]2CC(=O)C=C(c3ccc(CNC(=O)OC(C)(C)C)cc3)C2)cc1,"inconclusive: 20 µM [inhibitor, single point]"
16,CN(c1ccccc1)S(=O)(=O)c1ccc(C(=O)OCC(=O)NCc2cccs2)cc1,"inconclusive: 6.31 µM [inhibitor, partial curve]"
17,CC(=O)N1CC=CC1(CC(C)C)C(=O)NCCc1c[nH]c2ccccc12 (configuration not stated),"inconclusive: 2.82 µM [inhibitor, single point]"
18,C=C(C)CSc1nc2ncc(Cl)cc2[nH]1,inactive
19,COC(=O)C1CCN(C(=O)c2cc3c(=O)n4cccc(C)c4nc3n2Cc2ccccc2)CC1,"inconclusive: 4.47 µM [inhibitor, partial curve]"
20,O=C(Nc1nc2c(F)cc(F)cc2s1)c1ccco1,"inconclusive: 7.94 µM [inhibitor, single point]"
21,COc1cc2c(cc1OC)CN(C(=O)CCC(=O)c1ccc(F)cc1)CC2,"inconclusive: 6.31 µM [inhibitor, partial curve]"
22,COc1ccc(C[C@H]2CN3C(=NC[C@H]3C)N2CCNC(=O)c2ccc(C)c(Br)c2)cc1,"inconclusive: 14.1 µM [inhibitor, single point]"
23,Nc1nnnn1/N=C/c1ccccc1C(F)(F)F,inactive

# Not a retest: two of the compounds above.
row,Structure (SMILES),Potency
21,COc1cc2c(cc1OC)CN(C(=O)CCC(=O)c1ccc(F)cc1)CC2,"inconclusive: 6.31 µM [inhibitor, partial curve]"
22,COc1ccc(C[C@H]2CN3C(=NC[C@H]3C)N2CCNC(=O)c2ccc(C)c(Br)c2)cc1,"inconclusive: 14.1 µM [inhibitor, single point]"

# (next part)

row,Structure (SMILES),Potency
1,Cc1nn(C)c(C)c1NC(=O)COc1ccc(Cl)cc1Br,"inconclusive: 12.6 µM [inhibitor, single point]"
2,CCCC[n+]1ccn(-c2nc3ccccc3nc2[N-]S(=O)(=O)c2ccc(C)cc2)c1,inactive
3,Cc1ccc(N=Cc2cc(Cc3ccccc3Cl)cc([N+](=O)[O-])c2O)c(O)c1,active: 8.91 µM
4,Cn1cccc1/C=C1\SC(=Nc2ccccc2)NC1=O,active: 1.41 µM
5,Cc1ccnc(N2C(=O)c3cccc4c([N+](=O)[O-])ccc(c34)C2=O)c1,"inconclusive: 5.62 µM [inhibitor, single point]"
6,CCOC(=O)c1nc(C)nc(Sc2n[nH]c(-c3ccc(C(C)(C)C)cc3)n2)c1C,"inconclusive: 10 µM [inhibitor, partial curve, poor fit]"
7,CCCn1c(N)c(N2CCCCC2)c(=O)n(CC(=O)Nc2cccc(S(=O)(=O)N(C)C)c2)c1=O,"inconclusive: 0.891 µM [inhibitor, partial curve, poor fit]"
8,Brc1cc2ccccc2[n+](Cc2ccccc2)c1,"inconclusive: 7.08 µM [inhibitor, partial curve, poor fit]"
9,Cc1ccc(C(=O)NC(=S)Nc2ccc(CN3CCCCC3)cc2)c(C)c1,inactive
10,COc1ccc(COc2cc(-c3cccc(OC)c3)nc3ccc(NC(=O)c4ccccc4)cc23)cc1,"inconclusive: 12.6 µM [inhibitor, single point]"
11,Cn1c(=NC(=O)c2ccco2)sc2cccc(F)c21,"inconclusive: 2 µM [inhibitor, full curve]"
12,CC(C)(C)c1ccc(C(=O)Nc2cccnc2)cc1,"inconclusive: 8.91 µM [inhibitor, partial curve, poor fit]"
13,CCCN1C2CCCC1CC(NC(=S)Nc1cccc(C)c1C)C2 (configuration not stated),inactive
14,O=C(c1ccc(Cl)c([N+](=O)[O-])c1)N1CCN(S(=O)(=O)c2ccc(Cl)cc2)CC1,"inconclusive: 3.55 µM [inhibitor, partial curve, poor fit]"
15,COc1ccccc1OCC(=O)O/N=C(\N)c1ccccn1,"inconclusive: 5.62 µM [inhibitor, single point]"
16,C=CCN(c1ccccc1Cl)S(=O)(=O)c1cc(C(=O)N2CCCC2)ccc1Cl,"inconclusive: 3.16 µM [inhibitor, partial curve, poor fit]"
17,CCN(CC)CCn1nc2c3c(cccc3c1=O)-c1ccccc1-2,"inconclusive: 1.12 µM [inhibitor, full curve, poor fit]"
18,CN(C)c1ccc(C(=O)c2ccc(O)cc2O)cc1,inactive
19,O=C(Cn1cc(C(F)(F)F)ccc1=O)NCC1CCCO1 (configuration not stated),"inconclusive: 31.6 µM [inhibitor, single point]"
20,CCCC(=O)N1CCC(CCC(=O)NC2CC2)CC1,"inconclusive: 14.1 µM [inhibitor, partial curve, poor fit]"
21,O=C(CSc1ccccc1F)NCC1(N2CCCCC2)CCCCC1,"inconclusive: 8.91 µM [inhibitor, single point]"
22,N#C/C(=C\c1c(Oc2ccccc2F)nc2ccccn2c1=O)C(=O)NC1CCS(=O)(=O)C1 (configuration not stated),inactive
23,COc1ccc(CNC(=O)COC(=O)c2ccc(OCc3c(C)noc3C)cc2)cc1OC,inactive

row,Structure (SMILES),Potency
1,CC1CCCN(C(=O)c2cc(-c3ccco3)nc3ccccc23)C1 (configuration not stated),"inconclusive: 7.94 µM [inhibitor, single point]"
2,Cc1cc(C)cc(NC(=O)c2cccc(NC3=NC4CS(=O)(=O)CC4S3)c2)c1 (configuration not stated),"inconclusive: 2.82 µM [inhibitor, single point]"
3,CCc1nnc2c(NCCc3ccc(OC)c(OC)c3)nc3ccccc3n12,inactive
4,Cc1ccc(-c2nc(-c3cccnc3)sc2CC(=O)Nc2ccc(C)c(Cl)c2)cc1,"inconclusive: 11.2 µM [inhibitor, partial curve, poor fit]"
5,COc1ccc(/C=C/C(=O)OCC(=O)NCc2ccccc2)cc1OC,"inconclusive: 4.47 µM [inhibitor, partial curve, poor fit]"
6,COc1ccc(N(CC(=O)Nc2ccc(Cl)cc2)S(=O)(=O)c2c(C)n[nH]c2C)cc1,"inconclusive: 17.8 µM [inhibitor, partial curve, poor fit]"
7,CCC(CO)Oc1cc(NCc2ccccc2)c2ncn(C3CCCC3)c2c1 (configuration not stated),"inconclusive: 12.6 µM [inhibitor, single point]"
8,COCCCn1c(SCCc2ccccc2)nc2cc(OC)c(OC)cc2c1=N,"inconclusive: 5.01 µM [inhibitor, single point]"
9,Fc1ccc(CSc2nnc(-c3ccccn3)o2)cc1,"inconclusive: 12.6 µM [inhibitor, partial curve, poor fit]"
10,Cc1cc(C(=O)COC(=O)c2ccc(O)cc2)c(C)n1CC(F)(F)F,inactive
11,Nc1ccc(-c2nc3c(ccc4ccccc43)[nH]2)cc1,"inconclusive: 10 µM [inhibitor, partial curve, poor fit]"
12,COc1cccc(C=NCCNC(=O)c2nonc2N)c1O,inactive
13,CCOc1ccccc1NC(=O)C1CCCN(c2c(CC)c(C)nc3ncnn23)C1 (configuration not stated),inactive
14,Cc1oc(C(=O)O)cc1COc1cccc2ccccc12,inactive
15,O=C(CCNS(=O)(=O)c1ccccc1)NCCCSc1ccccc1,"inconclusive: 11.2 µM [inhibitor, single point]"
16,CCCCOc1ccc(C(=O)Nc2ccc(OCC(=O)N3CCOCC3)cc2)cc1,active: 7.08 µM
17,Cc1cc(C)cc(N2C(=O)CC(Sc3nnnn3-c3ccccc3)C2=O)c1 (configuration not stated),"inconclusive: 12.6 µM [inhibitor, single point]"
18,O=C(CN1CCCCC1)Nc1cccc(Oc2ccccc2)c1,inactive
19,COc1ccc(C2=NN(C(=O)CSc3nnc(-c4ccccc4F)o3)C(c3ccco3)C2)cc1 (configuration not stated),inactive
20,COc1ccc(N(CC(=O)N2CCCC(C)C2)S(=O)(=O)c2c(C)nn(C)c2C)cc1 (configuration not stated),"inconclusive: 1 µM [inhibitor, partial curve, poor fit]"
21,O=C(Nc1nccs1)c1ccc(COc2ccccc2Br)o1,"inconclusive: 10 µM [inhibitor, partial curve]"

# Rewritten with bars between the fields: 3 of the compounds above
row | Structure (SMILES) | Potency
5 | COc1ccc(/C=C/C(=O)OCC(=O)NCc2ccccc2)cc1OC | inconclusive: 4.47 µM [inhibitor, partial curve, poor fit]
12 | COc1cccc(C=NCCNC(=O)c2nonc2N)c1O | inactive
14 | Cc1oc(C(=O)O)cc1COc1cccc2ccccc12 | inactive
